The text below walks through data of publication doi:10.1101/2021.06.28.449463.

Protein sequences, listed by entry. Tags and fused reporters are not part of them.
UniProt B1AWL2: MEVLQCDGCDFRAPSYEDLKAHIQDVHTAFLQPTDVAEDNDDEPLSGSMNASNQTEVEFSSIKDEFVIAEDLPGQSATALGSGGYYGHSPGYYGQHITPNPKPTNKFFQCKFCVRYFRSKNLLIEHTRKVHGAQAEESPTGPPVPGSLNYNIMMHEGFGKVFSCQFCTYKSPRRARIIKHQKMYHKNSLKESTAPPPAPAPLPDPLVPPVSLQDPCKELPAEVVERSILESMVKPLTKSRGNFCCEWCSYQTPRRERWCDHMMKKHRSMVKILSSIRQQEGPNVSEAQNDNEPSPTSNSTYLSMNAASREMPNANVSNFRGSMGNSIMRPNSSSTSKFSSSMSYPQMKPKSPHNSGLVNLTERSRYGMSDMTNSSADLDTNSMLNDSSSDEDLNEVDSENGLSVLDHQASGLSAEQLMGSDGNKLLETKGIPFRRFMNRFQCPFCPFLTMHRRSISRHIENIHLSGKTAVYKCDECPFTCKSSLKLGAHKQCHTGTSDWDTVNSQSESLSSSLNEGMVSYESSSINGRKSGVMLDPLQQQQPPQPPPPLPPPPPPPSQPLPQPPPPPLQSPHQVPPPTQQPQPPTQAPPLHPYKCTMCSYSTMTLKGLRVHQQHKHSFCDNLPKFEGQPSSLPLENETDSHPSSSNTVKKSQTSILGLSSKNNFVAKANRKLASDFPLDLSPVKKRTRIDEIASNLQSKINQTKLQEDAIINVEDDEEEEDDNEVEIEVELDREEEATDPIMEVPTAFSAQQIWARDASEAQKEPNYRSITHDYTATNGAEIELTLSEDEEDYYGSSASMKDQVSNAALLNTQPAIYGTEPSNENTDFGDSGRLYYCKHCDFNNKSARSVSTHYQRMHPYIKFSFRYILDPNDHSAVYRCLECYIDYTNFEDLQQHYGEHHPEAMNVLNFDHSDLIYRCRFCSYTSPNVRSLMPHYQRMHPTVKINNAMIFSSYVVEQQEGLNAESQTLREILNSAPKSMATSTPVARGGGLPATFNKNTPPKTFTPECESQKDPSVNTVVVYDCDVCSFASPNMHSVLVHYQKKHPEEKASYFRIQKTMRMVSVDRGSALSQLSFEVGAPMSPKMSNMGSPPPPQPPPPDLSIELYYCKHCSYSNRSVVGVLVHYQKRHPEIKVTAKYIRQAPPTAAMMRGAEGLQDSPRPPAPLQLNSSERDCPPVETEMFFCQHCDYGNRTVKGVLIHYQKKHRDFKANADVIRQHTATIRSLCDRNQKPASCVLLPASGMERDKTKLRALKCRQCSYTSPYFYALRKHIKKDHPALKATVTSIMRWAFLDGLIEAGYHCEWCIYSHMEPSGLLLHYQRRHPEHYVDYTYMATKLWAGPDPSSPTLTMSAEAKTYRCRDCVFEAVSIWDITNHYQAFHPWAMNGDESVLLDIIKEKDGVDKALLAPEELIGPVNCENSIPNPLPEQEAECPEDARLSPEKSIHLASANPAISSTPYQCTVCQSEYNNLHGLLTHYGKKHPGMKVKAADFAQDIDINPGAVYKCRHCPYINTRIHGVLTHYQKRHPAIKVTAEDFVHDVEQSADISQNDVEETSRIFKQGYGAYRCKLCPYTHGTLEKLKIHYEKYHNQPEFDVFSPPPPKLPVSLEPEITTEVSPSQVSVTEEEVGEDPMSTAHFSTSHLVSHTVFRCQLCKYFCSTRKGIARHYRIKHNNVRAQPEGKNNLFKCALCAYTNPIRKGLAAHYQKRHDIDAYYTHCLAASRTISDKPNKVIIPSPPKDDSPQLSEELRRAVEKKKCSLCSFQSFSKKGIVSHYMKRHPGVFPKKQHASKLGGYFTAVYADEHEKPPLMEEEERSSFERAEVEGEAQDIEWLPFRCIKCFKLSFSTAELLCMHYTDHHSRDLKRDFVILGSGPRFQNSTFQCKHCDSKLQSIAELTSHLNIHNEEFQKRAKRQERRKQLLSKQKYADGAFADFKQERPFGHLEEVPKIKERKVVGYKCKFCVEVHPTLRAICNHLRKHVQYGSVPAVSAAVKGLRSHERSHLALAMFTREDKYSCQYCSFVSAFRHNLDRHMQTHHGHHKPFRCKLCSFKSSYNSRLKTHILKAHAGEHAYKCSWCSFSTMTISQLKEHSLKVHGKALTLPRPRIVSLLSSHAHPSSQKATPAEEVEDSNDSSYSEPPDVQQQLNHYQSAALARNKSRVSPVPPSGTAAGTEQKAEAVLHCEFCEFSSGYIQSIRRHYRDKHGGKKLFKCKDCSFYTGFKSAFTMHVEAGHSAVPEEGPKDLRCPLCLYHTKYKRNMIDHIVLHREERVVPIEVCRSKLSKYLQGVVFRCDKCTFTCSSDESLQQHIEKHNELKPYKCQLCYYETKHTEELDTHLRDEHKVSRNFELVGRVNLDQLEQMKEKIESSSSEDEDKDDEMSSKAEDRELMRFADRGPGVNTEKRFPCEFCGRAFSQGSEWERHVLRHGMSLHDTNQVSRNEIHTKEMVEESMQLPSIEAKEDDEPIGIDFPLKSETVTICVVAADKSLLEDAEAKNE
UniProt Q5DW34: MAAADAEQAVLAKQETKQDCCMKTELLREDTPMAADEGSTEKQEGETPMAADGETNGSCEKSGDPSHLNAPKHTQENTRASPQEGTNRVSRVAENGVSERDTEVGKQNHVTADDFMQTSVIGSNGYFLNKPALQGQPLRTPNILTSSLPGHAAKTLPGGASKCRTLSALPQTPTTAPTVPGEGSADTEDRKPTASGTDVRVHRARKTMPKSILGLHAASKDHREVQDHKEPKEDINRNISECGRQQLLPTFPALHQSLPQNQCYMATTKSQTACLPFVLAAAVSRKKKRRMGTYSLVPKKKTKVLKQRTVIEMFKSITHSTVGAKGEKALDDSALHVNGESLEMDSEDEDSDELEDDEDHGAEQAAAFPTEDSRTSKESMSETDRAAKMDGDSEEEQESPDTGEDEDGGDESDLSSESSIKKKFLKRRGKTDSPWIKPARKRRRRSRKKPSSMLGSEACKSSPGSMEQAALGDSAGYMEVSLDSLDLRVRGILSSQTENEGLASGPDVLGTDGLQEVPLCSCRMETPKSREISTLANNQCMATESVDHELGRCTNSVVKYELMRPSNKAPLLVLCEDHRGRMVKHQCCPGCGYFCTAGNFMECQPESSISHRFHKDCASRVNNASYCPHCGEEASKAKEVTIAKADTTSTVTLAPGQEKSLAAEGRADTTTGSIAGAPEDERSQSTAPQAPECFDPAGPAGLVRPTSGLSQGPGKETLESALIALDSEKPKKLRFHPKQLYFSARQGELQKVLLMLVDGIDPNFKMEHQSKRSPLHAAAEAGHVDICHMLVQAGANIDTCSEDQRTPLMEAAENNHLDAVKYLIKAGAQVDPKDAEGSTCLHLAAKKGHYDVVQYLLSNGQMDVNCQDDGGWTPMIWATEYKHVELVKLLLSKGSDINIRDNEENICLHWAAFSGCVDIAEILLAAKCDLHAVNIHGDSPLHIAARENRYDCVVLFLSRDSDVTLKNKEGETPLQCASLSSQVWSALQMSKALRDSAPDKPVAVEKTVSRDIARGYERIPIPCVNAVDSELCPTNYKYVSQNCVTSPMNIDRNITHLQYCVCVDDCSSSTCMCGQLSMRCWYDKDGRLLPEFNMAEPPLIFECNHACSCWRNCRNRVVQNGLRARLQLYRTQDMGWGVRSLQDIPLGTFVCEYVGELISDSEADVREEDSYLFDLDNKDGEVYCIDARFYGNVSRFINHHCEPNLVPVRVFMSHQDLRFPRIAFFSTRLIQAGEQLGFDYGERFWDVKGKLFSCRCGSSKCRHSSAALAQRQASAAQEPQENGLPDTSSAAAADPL
UniProt O88286: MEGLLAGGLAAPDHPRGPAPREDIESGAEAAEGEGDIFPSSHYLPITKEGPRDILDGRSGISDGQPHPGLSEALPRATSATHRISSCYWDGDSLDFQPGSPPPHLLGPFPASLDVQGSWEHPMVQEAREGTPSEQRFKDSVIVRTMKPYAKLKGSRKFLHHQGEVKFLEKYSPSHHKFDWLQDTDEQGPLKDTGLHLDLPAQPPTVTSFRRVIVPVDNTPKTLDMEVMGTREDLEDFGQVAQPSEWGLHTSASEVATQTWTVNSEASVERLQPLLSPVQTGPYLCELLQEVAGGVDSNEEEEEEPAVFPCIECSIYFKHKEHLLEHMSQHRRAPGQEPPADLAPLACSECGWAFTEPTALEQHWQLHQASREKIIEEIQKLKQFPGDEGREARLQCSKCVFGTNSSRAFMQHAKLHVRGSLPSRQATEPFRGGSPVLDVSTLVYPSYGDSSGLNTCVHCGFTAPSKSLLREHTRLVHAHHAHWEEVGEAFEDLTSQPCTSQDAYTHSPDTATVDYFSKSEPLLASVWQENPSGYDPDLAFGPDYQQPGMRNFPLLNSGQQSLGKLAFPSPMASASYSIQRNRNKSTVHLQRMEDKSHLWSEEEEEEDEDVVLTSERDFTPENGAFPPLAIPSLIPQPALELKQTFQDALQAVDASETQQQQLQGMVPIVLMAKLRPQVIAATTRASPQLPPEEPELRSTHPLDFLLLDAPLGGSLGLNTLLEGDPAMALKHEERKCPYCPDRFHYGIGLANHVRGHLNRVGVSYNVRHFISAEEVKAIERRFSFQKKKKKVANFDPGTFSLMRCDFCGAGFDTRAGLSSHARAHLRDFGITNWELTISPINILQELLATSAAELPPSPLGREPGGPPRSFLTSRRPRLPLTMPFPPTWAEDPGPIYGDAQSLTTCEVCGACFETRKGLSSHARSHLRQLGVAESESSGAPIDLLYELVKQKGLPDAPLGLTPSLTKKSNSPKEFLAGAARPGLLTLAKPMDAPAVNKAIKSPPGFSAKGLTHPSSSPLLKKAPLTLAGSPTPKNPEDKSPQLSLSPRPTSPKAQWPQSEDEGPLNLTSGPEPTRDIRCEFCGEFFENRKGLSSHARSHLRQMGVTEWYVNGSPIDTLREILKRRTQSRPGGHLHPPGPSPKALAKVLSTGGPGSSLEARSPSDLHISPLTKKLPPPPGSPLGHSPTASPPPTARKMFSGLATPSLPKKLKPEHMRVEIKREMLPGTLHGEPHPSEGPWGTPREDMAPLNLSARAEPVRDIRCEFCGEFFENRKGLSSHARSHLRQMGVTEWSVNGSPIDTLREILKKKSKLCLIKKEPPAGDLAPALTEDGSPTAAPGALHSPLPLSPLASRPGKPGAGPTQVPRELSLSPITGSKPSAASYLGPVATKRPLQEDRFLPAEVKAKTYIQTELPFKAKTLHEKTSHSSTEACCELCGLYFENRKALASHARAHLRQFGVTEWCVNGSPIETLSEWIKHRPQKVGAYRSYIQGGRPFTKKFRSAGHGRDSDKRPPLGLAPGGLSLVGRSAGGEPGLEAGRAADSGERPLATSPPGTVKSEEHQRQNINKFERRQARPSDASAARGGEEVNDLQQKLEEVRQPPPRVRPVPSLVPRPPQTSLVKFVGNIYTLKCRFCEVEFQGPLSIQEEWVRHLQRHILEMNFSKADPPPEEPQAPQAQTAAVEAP

Experiment [1] has as its target Avi-GFP-3XFLAG-tagged endogenous ZFP462 (Zinc finger protein 462) (mouse (endogenous in mESCs)) (UniProt B1AWL2). Kind of experiment: affinity purification with mass spectrometry.
For experiment [2], the target named is Avi-fused endogenous GLP (G9-like protein, Euchromatic Histone Methyltransferase 1) (mouse (endogenous in mESCs)) (UniProt Q5DW34). Description: affinity purification with mass spectrometry.

These are yes or no findings as the source states them, for the method shown. Binding seen in cells or lysates may run through a third protein. Here binding means that the protein was enriched with, or labelled near, the bait; the list need not be complete.

Take “WIZ, endogenous (from UniProt O88286 1-1684)”: the binding result in experiment [1] and in experiment [2] was “binds” in each case.
Take “G9A (Euchromatic Histone Methyltransferase 2), endogenous (from UniProt Q9Z148 1-1263)”: the binding entry in experiment [1] and in experiment [2] was “binds” each time.
Consider “ZFP462 (Zinc finger protein 462), endogenous (from UniProt B1AWL2 1-2495)”, for which the binding result in experiment [2] is “binds”.
